Reference: PubChem BioAssay AID652243 (Drosophila RNAi Screening Center, 2013)

- Screen: 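Knock-downs that decrease or increase androgen receptor reporter signal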 (primary screen)
- Cells: Drosophila S2R+ cells
- Reagents: long dsRNA against Drosophila genes
- Duration: 72 h (48 h, then 24 h hormone)
- Conditions: synthetic androgen R1881 at 10 nM for 24 h
- Measured: 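Firefly light from an androgen-responsive reporter and Renilla control light per well, raw and unnormalised, for each of two replicates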
- Direction: firefly reporter light: higher = more light from androgen-responsive reporter; Renilla control light: higher = more constitutive control signal (cell number, transfection)
- Call rule: 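Hit when the log firefly-to-Renilla ratio dropped or increased by a fixed fold versus the mean of GFP or LacZ controls across duplicate plates; lowering cut given as 1.5 and as 3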
- Meaning of the calls: active = hit: reporter lowered or raised; inactive = no hit
The screen tested about 24,000 reagents; below is a random part of those with a known target gene and a result. Of all reagents, 246 (1%) are marked active. 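Plates not normalised; calls are printed but the firefly/Renilla ratio behind them is not deposited; fold cut for lowering reported inconsistently.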 Raw values vary from plate to plate and are shown uncorrected. Unmarked entries are inactive. Reagents against one gene are numbered here. The record does not give: the amount of reagent.

gene | reagent no. | firefly reporter light, replicate 1 | firefly reporter light, replicate 2 | Renilla control light, replicate 1 | Renilla control light, replicate 2
Hmt-1 | 1 | 43124 | 64852 | 2.59e5 | 5.59e5
TSG101 | 1 | 2.54e5 | 2.01e5 | 2.49e6 | 1.98e6
Acp36DE | 1 | 1.67e5 | 1.90e5 | 1.84e6 | 2.07e6
Tango9 | 1 | 63109 | 48940 | 4.16e5 | 3.35e5
CG10098 | 1 | 40821 | 29690 | 2.95e5 | 3.06e5
CG10098 | 2 | 2.61e5 | 2.47e5 | 7.40e5 | 7.67e5
zf30C | 1 | 1.24e6 | 1.30e6 | 1.88e6 | 1.88e6
Nthl1 | 1 | 1.18e5 | 1.24e5 | 1.18e6 | 1.29e6
CR33629 | 1 | 1.20e6 | 1.13e6 | 2.21e6 | 2.44e6
cv | 1 | 2.78e5 | 4.00e5 | 3.22e6 | 3.47e6
CG12672 | 1 | 1.14e5 | 1.32e5 | 1.45e6 | 2.04e6
CG12672 | 2 | 8.83e5 | 8.95e5 | 1.06e6 | 1.30e6
Sp7 | 1 | 69319 | 90444 | 1.45e6 | 1.50e6
vsg | 1 | 2.47e5 | 1.56e5 | 2.90e6 | 2.01e6
vsg | 2 | 3.35e5 | 3.09e5 | 9.94e5 | 5.56e5
CG4982 | 1 | 4.11e5 | 4.83e5 | 2.02e6 | 3.17e6
mRpL38 | 1 | 5.76e5 | 6.18e5 | 4.40e6 | 4.57e6
mRpL38 | 2 | 4.84e5 | 5.65e5 | 1.40e6 | 1.45e6
Zn72D | 1 | 83330 | 54453 | 5.11e5 | 3.06e5
CG15450 | 1 | 2.52e5 | 3.43e5 | 2.37e6 | 2.58e6
CG32652 (retired record) | 1 | 3.76e5 | 3.96e5 | 3.04e6 | 3.72e6
CG32652 (retired record) | 2 | 5.60e5 | 8.13e5 | 7.44e5 | 1.05e6
CG32652 (retired record) | 3 | 2.78e5 | 3.20e5 | 7.93e5 | 8.22e5
CG16798 | 1 | 1.21e5 | 89684 | 1.04e6 | 7.79e5

Records listed so far whose gene name begins with Z or z (2):
gene | reagent no. | firefly reporter light, replicate 1 | firefly reporter light, replicate 2 | Renilla control light, replicate 1 | Renilla control light, replicate 2
zf30C | 1 | 1.24e6 | 1.30e6 | 1.88e6 | 1.88e6
Zn72D | 1 | 83330 | 54453 | 5.11e5 | 3.06e5

Continued.
gene | reagent no. | firefly reporter light, replicate 1 | firefly reporter light, replicate 2 | Renilla control light, replicate 1 | Renilla control light, replicate 2
Est-Q | 1 | 35968 | 49600 | 3.20e5 | 2.43e5
Tbh | 1 | 2.54e5 | 3.25e5 | 2.49e6 | 2.48e6
Tbh | 2 | 2.53e5 | 2.00e5 | 6.11e5 | 5.98e5
CG33339 | 1 | 6.12e5 | 1.04e6 | 1.14e6 | 1.91e6
CG33339 | 2 | 4.09e5 | 4.85e5 | 1.09e6 | 1.09e6
Br140 | 1 | 5.37e5 | 5.25e5 | 9.18e5 | 9.83e5
CG7296 | 1 | 4.13e5 | 4.19e5 | 2.26e6 | 2.76e6
CG7296 | 2 | 6.88e5 | 6.94e5 | 1.96e6 | 2.19e6
CG7296 | 3 | 1.17e6 | 1.39e6 | 7.03e5 | 7.46e5
CG42319 | 1 | 5.54e5 | 3.86e5 | 2.02e6 | 2.23e6
CG42319 | 2 | 2.40e5 | 1.97e5 | 1.37e6 | 1.39e6
CG42319 | 3 | 4.84e5 | 1.04e6 | 7.20e5 | 1.42e6
CG42319 | 4 | 2.91e5 | 3.31e5 | 8.00e5 | 8.39e5
Nep5 | 1 | 64277 | 92511 | 5.78e5 | 5.31e5
Spn100A | 1 | 1.20e5 | 78121 | 9.63e5 | 6.82e5
Gclm | 1 | 37377 | 67972 | 5.08e5 | 5.48e5
Gclm | 2 | 3.18e5 | 2.77e5 | 6.70e5 | 7.91e5
CG32773 (retired record) | 1 | 5.30e5 | 7.64e5 | 4.10e5 | 6.16e5
CG1896 | 1 | 53788 | 68144 | 4.95e5 | 2.72e5
mex1 | 1 | 2.66e5 | 1.83e5 | 2.68e6 | 2.09e6
ND-30 | 1 | 1.22e6 | 8.90e5 | 1.81e6 | 1.85e6
Rassf | 1 | 54899 | 1.15e5 | 5.36e5 | 5.58e5
Rassf | 2 | 3.59e5 | 3.06e5 | 1.48e6 | 9.58e5
sick | 1 | 67291 | 68200 | 9.41e5 | 8.69e5
sick | 2 | 72574 | 90656 | 8.65e5 | 1.10e6
sick | 3 | 1.57e5 | 1.75e5 | 1.54e6 | 1.54e6
sick | 4 | 99348 | 1.23e5 | 8.05e5 | 1.21e6
sick | 5 | 1.22e5 | 1.15e5 | 1.01e6 | 1.31e6
sick | 6 | 5.13e5 | 5.42e5 | 1.51e6 | 1.70e6
CtIP | 1 | 3.54e5 | 3.20e5 | 2.21e6 | 2.45e6
CtIP | 2 | 6.66e5 | 7.44e5 | 1.03e6 | 1.18e6
CG34328 | 1 | 1.01e6 | 8.77e5 | 1.98e6 | 1.48e6
CG13248 | 1 | 3.72e5 | 2.47e5 | 3.03e6 | 2.30e6
CG13248 | 2 | 8.58e5 | 9.34e5 | 1.10e6 | 8.07e5
